For this assay, the target named is his6-tagged TelC toxin domain (TelCtox), residues 202-552 of TelC (Streptococcus intermedius B196) (UniProt T1ZG69). The assay can be described thus: pull-down.

The text below walks through data of article PMC6193138.

These are yes or no findings as the source states them, for the method shown. In cells and extracts the contact can be indirect. Binding can be weak; no strength is given.

As to “VSV-G epitope-tagged TipC1_(ΔTMD) (TipC1_(ΔTMD)-V) (from UniProt T1ZF08) (domain or fragment)”, the binding result was “binds”.
